No constants are given. Whether binding was seen depends on the method and setting. In cells and extracts the contact can be indirect. A yes stands for co-enrichment or nearness to the bait. Other partners may have been found. For some assays here: Sequences can lack the tags named with a protein.
Assays:
[1] = biological target: T1, BirA-tag LATS2 (BioID bait) (UniProt Q9NRM7); test: proximity labelling
T1 sequence: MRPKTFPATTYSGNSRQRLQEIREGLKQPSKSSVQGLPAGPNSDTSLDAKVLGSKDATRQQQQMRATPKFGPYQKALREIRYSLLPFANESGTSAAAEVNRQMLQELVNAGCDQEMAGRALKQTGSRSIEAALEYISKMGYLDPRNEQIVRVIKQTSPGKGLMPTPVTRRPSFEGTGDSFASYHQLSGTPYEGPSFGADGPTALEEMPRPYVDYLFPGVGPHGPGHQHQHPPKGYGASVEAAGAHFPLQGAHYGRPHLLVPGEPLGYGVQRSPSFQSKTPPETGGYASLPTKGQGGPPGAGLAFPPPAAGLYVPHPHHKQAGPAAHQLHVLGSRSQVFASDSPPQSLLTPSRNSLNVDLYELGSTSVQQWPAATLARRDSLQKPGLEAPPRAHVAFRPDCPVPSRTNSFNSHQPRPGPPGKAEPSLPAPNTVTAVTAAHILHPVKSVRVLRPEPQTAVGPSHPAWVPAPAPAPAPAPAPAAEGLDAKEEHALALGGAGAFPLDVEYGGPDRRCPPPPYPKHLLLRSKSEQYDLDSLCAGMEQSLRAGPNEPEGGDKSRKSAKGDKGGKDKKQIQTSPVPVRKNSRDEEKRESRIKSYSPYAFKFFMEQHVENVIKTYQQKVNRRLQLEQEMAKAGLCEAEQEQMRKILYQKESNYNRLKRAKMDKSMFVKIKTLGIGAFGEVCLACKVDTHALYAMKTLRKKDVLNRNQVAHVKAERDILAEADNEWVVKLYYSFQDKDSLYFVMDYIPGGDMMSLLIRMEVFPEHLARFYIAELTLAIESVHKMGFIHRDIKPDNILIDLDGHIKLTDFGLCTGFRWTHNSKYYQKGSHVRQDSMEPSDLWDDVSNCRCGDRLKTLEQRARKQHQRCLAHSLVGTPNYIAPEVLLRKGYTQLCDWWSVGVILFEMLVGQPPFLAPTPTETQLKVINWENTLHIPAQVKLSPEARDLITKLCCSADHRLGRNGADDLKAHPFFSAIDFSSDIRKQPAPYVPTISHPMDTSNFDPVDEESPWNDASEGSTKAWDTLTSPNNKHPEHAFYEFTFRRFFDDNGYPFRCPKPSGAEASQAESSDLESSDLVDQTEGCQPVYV

By UniProt entry, the sequences of proteins in these tests, tags left out.
UniProt O95835: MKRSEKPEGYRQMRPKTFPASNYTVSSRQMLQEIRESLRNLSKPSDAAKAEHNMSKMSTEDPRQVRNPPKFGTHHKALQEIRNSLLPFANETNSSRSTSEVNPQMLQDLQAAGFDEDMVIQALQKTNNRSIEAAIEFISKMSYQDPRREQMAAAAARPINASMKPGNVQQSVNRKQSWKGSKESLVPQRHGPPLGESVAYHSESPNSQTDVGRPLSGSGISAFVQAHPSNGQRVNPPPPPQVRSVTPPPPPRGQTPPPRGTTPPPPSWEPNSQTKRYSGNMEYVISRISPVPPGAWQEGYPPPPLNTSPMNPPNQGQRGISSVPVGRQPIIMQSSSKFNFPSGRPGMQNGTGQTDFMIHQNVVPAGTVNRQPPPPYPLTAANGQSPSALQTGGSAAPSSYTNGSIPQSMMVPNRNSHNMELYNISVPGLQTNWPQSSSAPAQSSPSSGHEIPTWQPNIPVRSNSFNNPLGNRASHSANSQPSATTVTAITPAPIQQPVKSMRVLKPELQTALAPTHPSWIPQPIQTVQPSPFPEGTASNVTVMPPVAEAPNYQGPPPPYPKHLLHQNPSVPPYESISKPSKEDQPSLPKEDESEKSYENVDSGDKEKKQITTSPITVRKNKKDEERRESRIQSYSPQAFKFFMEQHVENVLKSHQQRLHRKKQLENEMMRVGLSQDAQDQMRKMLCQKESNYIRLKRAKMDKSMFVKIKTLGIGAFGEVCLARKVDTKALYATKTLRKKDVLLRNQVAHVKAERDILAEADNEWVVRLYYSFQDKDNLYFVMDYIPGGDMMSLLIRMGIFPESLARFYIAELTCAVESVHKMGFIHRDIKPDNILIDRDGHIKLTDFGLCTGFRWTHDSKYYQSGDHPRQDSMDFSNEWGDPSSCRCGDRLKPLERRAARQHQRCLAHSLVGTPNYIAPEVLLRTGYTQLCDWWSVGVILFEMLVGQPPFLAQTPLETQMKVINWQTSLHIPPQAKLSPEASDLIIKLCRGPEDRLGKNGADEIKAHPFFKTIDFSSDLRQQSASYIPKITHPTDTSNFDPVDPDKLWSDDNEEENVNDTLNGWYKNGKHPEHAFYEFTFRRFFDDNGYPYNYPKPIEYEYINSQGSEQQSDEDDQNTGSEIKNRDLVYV

[2] = biological target: BirA-tag LATS1 (BioID bait) (UniProt O95835); test: proximity labelling

B1: KIRREL1 found by BioID-MS in HEK293A cells (receptor, UniProt Q96J84 17-757)
chain: QGTQTRFSQEPADQTVVAGQRAVLPCVLLNYSGIVQWTKDGLALGMGQGLKAWPRYRVVGSADAGQYNLEITDAELSDDASYECQATEAALRSRRAKLTVLIPPEDTRIDGGPVILLQAGTPHNLTCRAFNAKPAATIIWFRDGTQQEGAVASTELLKDGKRETTVSQLLINPTDLDIGRVFTCRSMNEAIPSGKETSIELDVHHPPTVTLSIEPQTVQEGERVVFTCQATANPEILGYRWAKGGFLIEDAHESRYETNVDYSFFTEPVSCEVHNKVGSTNVSTLVNVHFAPRIVVDPKPTTTDIGSDVTLTCVWVGNPPLTLTWTKKDSNMVLSNSNQLLLKSVTQADAGTYTCRAIVPRIGVAEREVPLYVNGPPIISSEAVQYAVRGDGGKVECFIGSTPPPDRIAWAWKENFLEVGTLERYTVERTNSGSGVLSTLTINNVMEADFQTHYNCTAWNSFGPGTAIIQLEEREVLPVGIIAGATIGASILLIFFFIALVFFLYRRRKGSRKDVTLRKLDIKVETVNREPLTMHSDREDDTASVSTATRVMKAIYSSFKDDVDLKQDLRCDTIDTREEYEMKDPTNGYYNVRAHEDRPSSRAVLYADYRAPGPARFDGRPSSRLSHSSGYAQLNTYSRGPASDYGPEPTPPGPAAPAGTDTTSQLSYENYEKFNSHPFPGAAGYPTYRLGYPQAPPSGLERTPYEAYDPIGKYATATRFSYTSQHSDYGQRFQQRMQTHV
B1 was tested, and the binding [1] was “binds” and the binding [2] was “binds”.
